Assay results reported in US20120101086A1, “THIADIAZOLE DERIVATIVES AND THEIR USE FOR THE TREATMENT OF DISORDERS MEDIATED BY S1P1 RECEPTORS” (GLAXO GROUP LIMITED, priority 2009, published 2012).
Counter-ions that a name gives are not always drawn. Some of these results come from one statement about several compounds together.

Amino acid sequences for entries named in this document (tags omitted).
UniProt P21453, whole entry: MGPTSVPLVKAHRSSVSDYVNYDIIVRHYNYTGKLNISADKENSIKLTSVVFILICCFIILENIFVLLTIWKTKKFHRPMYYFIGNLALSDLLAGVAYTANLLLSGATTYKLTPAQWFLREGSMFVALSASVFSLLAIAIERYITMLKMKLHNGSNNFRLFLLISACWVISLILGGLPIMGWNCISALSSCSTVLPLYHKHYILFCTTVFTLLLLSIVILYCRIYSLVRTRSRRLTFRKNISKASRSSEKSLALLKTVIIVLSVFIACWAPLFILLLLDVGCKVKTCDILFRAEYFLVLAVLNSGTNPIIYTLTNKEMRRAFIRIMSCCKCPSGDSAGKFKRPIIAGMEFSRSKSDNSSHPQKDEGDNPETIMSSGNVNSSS
UniProt Q99500, whole entry, species assumed: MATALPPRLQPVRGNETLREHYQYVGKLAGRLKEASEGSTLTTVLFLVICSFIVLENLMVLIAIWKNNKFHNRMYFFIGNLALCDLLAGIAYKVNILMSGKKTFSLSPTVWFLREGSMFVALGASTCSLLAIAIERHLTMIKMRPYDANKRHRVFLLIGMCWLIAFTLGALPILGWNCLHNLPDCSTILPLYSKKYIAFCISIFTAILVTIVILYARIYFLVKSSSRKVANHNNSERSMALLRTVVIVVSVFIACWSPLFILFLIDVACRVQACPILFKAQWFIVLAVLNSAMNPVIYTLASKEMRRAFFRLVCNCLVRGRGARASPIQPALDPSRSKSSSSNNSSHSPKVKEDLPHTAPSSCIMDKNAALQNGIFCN

Experiments:
S1P1 [1] = biological target: T1, S1P1 (Homo sapiens, UniProt P21453); assay: S1P-1 β-Arrestin recruitment assay; type: cell-based; set-up: host or cells: PathHunter CHO-K1 EDG1 β-Arrestin cell line; conditions: PathHunter CHO-K1 EDG1 β-Arrestin cell line, chemi-luminescence
Procedure: β-Arrestin recruitment assays were carried out using the PathHunter CHO-K1 EDG1 β-Arrestin cell line (DiscoveRx Corporation) in a chemi-luminescence detection assay. This cell line stably expresses β-Arrestin 2 and S1P1 fused to complementing portions of β-galactosidase (‘EA’ and ‘pro-link’, respectively) which associate upon Arrestin recruitment to form functional β-galactosidase enzyme.
Cells were grown to 80% confluency in Growth Medium (F12 nutrient HAMS supplemented with 10% heat-inactivated USA FBS, 1% L-glutamax, 800 m/ml Geneticin and 300 m/ml Hygromycin). Cells were harvested from the flask using Enzyme Free Cell Dissociation Buffer (Gibco) and washed from flasks with Optimem solution (Gibco). Cells were then centrifuged at 1000 rpm for 2-3 min and resuspended in Assay Buffer (Prepared from Sigma kit H1387 supplemented with 20 ml/L HEPES, 4.7 ml/L NaHCO3, 0.1% pluronic acid F-68 solution, 0.1% BSA and adjusted to pH 7.4 using sodium hydroxide at 1×10^6 cells/ml. Cells were dispensed into assay plates containing compounds (100n1/well of a solution of test compound in 100% DMSO) at 1×10^4 cells/well and incubated at 37° C./5% CO2 for 90 min followed by 15 min at room temperature. 5 μl detection mix (1 part Galacton Star, 5 parts Emerald II, 19 parts Assay Buffer; DiscoveRx) were added per well and the plates incubated at room temperature for 60 min. Luminescence was quantified using a Viewlux plate reader.

S1P3 = biological target: T2, S1P3 (Homo sapiens, UniProt Q99500); assay: S1P3 GTPγS assay; type: biochemical
T2 construct: expressed in transfected cells; host or cells: RBL cells (membranes, crude or sucrose-gradient purified)

S1P1 [2] = biological target: T1, S1P1; assay: S1P1 GTPγS assay; type: biochemical; set-up: expressed in transfected cells; host or cells: RH7777 cells (membranes)
Procedure: The potencies and efficacies of the compounds of this invention for the S1P1 receptor can be determined by GTPγS assay performed on the human cloned receptor as described herein. […] All steps were performed at 4° C. Cells were homogenised within a glass Waring blender for 2 bursts of 15 secs in 200 mls of buffer (50 mM HEPES, 1 mM leupeptin, 25 m/ml bacitracin, 1 mM EDTA, 1 mM PMSF, 2 μM pepstatin A). The blender was plunged into ice for 5 mins after the first burst and 10-40 mins after the final burst to allow foam to dissipate. The material was then spun at 500 g for 20 mins and the supernatant spun for 36 mins at 48,000 g. The pellet was resuspended in the same buffer as above but without PMSF and pepstatin A. The material was then forced through a 0.6 mm needle, made up to the required volume, (usually ×4 the volume of the original cell pellet), aliquoted and stored frozen at—80° C. S1P1 expressing RH7777 membranes (1.5 μg/well) membranes (1.5 μg/well) were homogenised by passing through a 23G needle. These were then adhered to WGA-coated SPA beads (0.125 mg/well) in assay buffer (HEPES 20 mM, MgCl2, 10 mM, NaCl 100 mM and pH adjusted to 7.4 using KOH 5M). GDP 10 μM FAC and saponin 90 μg/ml FAC were also added After 30 minutes precoupling on ice, the bead and membrane suspension was dispensed into white Greiner polypropylene LV 384-well plates (5 μl/well), containing 0.1 μl of compound. 5 μl/well [^35S]-GTPγS (0.5 nM for S1P1 or 0.3 nM for S1P3 final radioligand concentration) made in assay buffer was then added to the plates. The final assay cocktail (10.1 μl) was then sealed, spun on a centrifuge, then read immediately on a Viewlux instrument. Alternatively, after 30 minutes precoupling on ice, the bead and membrane suspension was mixed with ^35S]-GTPγS (0.5 nM final radioligand concentration) in assay buffer (HEPES 20 mM, MgCl2 10 mM, NaCl 100 mM and pH adjusted to 7.4 using KOH 5M) in a 1:1 ratio. The bead, membrane and radioligand suspension was dispensed into white Greiner polypropylene low volume 384-well plates (10 μl/well), containing 0.1 μl of a solution of test compound in 100% DMSO. The final assay cocktail (10.1 μl) was then sealed, spun on a centrifuge, then read immediately on a Viewlux instrument.

[3] = S1P3 expressing RBL membranes, [35S]-GTPγS 0.3 nM, first protocol
[4] = tested in one of the above S1P3 assays (incl. purified membrane protocol)
[5] = S1P1 expressing RH7777 membranes, [35S]-GTPγS 0.5 nM, first protocol
[6] = tested in one of the above S1P1 assays (two protocols)

Row | pEC50 (S1P1 [1]) | pEC50 (S1P3; [3]) | pDC50 (S1P3; [4]) | pEC50 (S1P3; [4]) | pEC50 (S1P1 [2]; [5]) | pEC50 (S1P1 [2]; [6]) | Compound
1 | ≥ 6 | < 6 | < 5 | < 6 | > 6 |  | CC(C)Oc1ccc(-c2nnc(-n3cc4c(n3)CCN(CCCC(=O)O)C4)s2)cc1C#N [Example 13, 4-[2-(5-{3-Cyano-4-[(1-methylethyl)oxy]phenyl}-1,3,4-thiadiazol-2-yl)-2,4,6,7-tetrahydro-5H-pyrazolo[4,3-c]pyridin-5-yl]butanoic acid]
2 | ≥ 6 | < 6 | < 5 | < 6 | > 6 | > 6 | CC(C)Oc1ccc(-c2nnc(-n3ncc4c3CCNC4)s2)cc1Cl.O=C(O)C(F)(F)F [Example 14, 1-(5-{3-Chloro-4-[(1-methylethyl)oxy]phenyl}-1,3,4-thiadiazol-2-yl)-4,5,6,7-tetrahydro-1H-pyrazolo[4,3-c]pyridine trifluoroacetic acid salt]
3 | ≥ 6 | < 6 | < 5 | < 6 | > 6 | > 6 | CC(C)Oc1ccc(-c2nnc(-n3ncc4c3CCN(CCC(=O)O)C4)s2)cc1Cl [Example 15, 3-[1-(5-{3-Chloro-4-[(1-methylethyl)oxy]phenyl}-1,3,4-thiadiazol-2-yl)-1,4,6,7-tetrahydro-5H-pyrazolo[4,3-c]pyridin-5-yl]propanoic acid]
4 | ≥ 6 | < 6 |  |  | > 6 | > 6 | CC(C)Oc1ccc(-c2nnc(-n3cc4c(n3)CCN(CCCC(=O)O)CC4)s2)cc1Cl [Example 16, 4-[2-(5-{3-Chloro-4-[(1-methylethyl)oxy]phenyl}-1,3,4-thiadiazol-2-yl)-4,5,7,8-tetrahydropyrazolo[3,4-c]azepin-6(2H)-yl]butanoic acid lithium salt]
5 | ≥ 6 |  | < 5 | < 6 |  | > 6 | Cc1c2c(nn1-c1nnc(-c3ccc(OC(C)C)c(C#N)c3)s1)CCN(C(CO)CO)C2 [Example 25, 5-(5-{5-[2-hydroxy-1-(hydroxymethyl)ethyl]-3-methyl-4,5,6,7-tetrahydro-2H-pyrazolo[4,3-c]pyridin-2-yl}-1,3,4-thiadiazol-2-yl)-2-[(1-methylethyl)oxy]benzonitrile]
6 | ≥ 6 |  | < 5 | < 6 |  | > 6 | Cc1c2c(nn1-c1nnc(-c3ccc(OC(C)C)c(C#N)c3)s1)CCN(C[C@H](O)CO)C2 [Example 26, 5-(5-{5-[(2S)-2,3-dihydroxypropyl]-3-methyl-4,5,6,7-tetrahydro-2H-pyrazolo[4,3-c]pyridin-2-yl}-1,3,4-thiadiazol-2-yl)-2-[(1-methylethyl)oxy]benzonitrile]
7 | ≥ 6 |  | < 5 | < 6 |  | > 6 | Cc1c2c(nn1-c1nnc(-c3ccc(OC(C)C)c(C#N)c3)s1)CCN(C[C@@H](O)CO)C2 [Example 27, 5-(5-{5-[(2R)-2,3-dihydroxypropyl]-3-methyl-4,5,6,7-tetrahydro-2H-pyrazolo[4,3-c]pyridin-2-yl}-1,3,4-thiadiazol-2-yl)-2-[(1-methylethyl)oxy]benzonitrile]
